Results as given in paper doi:10.1101/2024.11.11.622897.
The exact form of at least one protein or probe is not confirmed. For part of these data: The comparison behind a weaker result is the experiment's own reference, which may not be listed here. For part of these data: At least one verdict was read from the data and is not stated in words by the source. For part of these data: Results from cells or extracts need not show a direct contact.

Tests used:
[1] = test system: DdaA (A. radioresistens) (Acinetobacter radioresistens ATCC 43998); assay: EMSA; settings: protein in 150 mM NaCl, 20 mM Tris-HCl pH 7.5
[2] = test system: DdaA homolog Gs (Geoalkalibacter subterraneus Red1); assay: EMSA; settings: protein in 150 mM NaCl, 20 mM Tris-HCl pH 7.5
[3] = test system: DdaA homolog Ca (Chrysiogenes arsenatis DSM 11915); assay: EMSA; settings: protein in 150 mM NaCl, 20 mM Tris-HCl pH 7.5
[4] = test system: DdaA homolog Pa (Psychrobacter aquimaris KCTC 12254); assay: EMSA; settings: protein in 150 mM NaCl, 20 mM Tris-HCl pH 7.5
[5] = test system: DdaA native from lysate (Acinetobacter radioresistens ATCC 43998); assay: pull-down + MS; settings: cell lysate; protein in an extract

“TTTCCGGTCTGGGCAACACAATATGACGTGTAATTTTAACC (double strand) [recA promoter M2]”: binds more weakly ([1]; drastically impaired).

“TTTCCGGTCTGGGCGAGACAATATGACGTGTAATTTTAACC (double strand) [recA promoter M3]”: binds more weakly ([2]; weakened or lost); binds more weakly ([1]; drastically impaired); binds more weakly ([3]; weakened or lost). “TTTCCGGTCTGGGCGAGACAATATGACGTGTAATTTTAACC (double strand) [recA promoter M3]”: binds more weakly ([4]; weakened or lost).

“TTTCCGGTCTGGGCGACCCAATATGACGTGTAATTTTAACC (double strand) [recA promoter M4]”: binds more weakly ([1]; weak shifted band retained).

“TTTCCGGTCTGGGGGACACAATATGACGTGTAATTTTAACC (double strand) [recA promoter M1]”: binds more weakly ([1]; drastically impaired).

“TTTCCGGTCTGGGCGACACAATATGACGTGTAATTTTAACC (double strand) [recA promoter motif WT (AR-DDRM)]”: binds [2]; binds [1]; binds [3]. “TTTCCGGTCTGGGCGACACAATATGACGTGTAATTTTAACC (double strand) [recA promoter motif WT (AR-DDRM)]”: binds [4].

“ATGACGTTTCATATGTGTTTTCCGGTCTGGGCGACACAATATGACGTGTAATTTTAACC (double strand) [recA promoter pull-down dsDNA]”: binds [5].
